Source: PubChem BioAssay AID1508597 (Cure First, 2020)

Aim: 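Genes whose silencing sensitises or protects ovarian cancer cells against rucaparib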 (primary screen)
System: human ovarian carcinoma lines grown from tumours: OCI-P5x (papillary serous) and OCI-C5x (clear cell)
Knock-down reagent: siRNA pool against human genes, 1.25 pmol siRNA per well
Time to read-out: 72 h or 96 h, depending on the cell culture
Challenge: rucaparib 20 µM (about IC30) or vehicle, present until read-out
Measured: 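Luminescent ATP-based viability assay read 72 or 96 h after transfection, depending on culture, given as normalised percent viability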
Scale: viability, normalised: higher = more viable cells remaining
Call rule: 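Active when normalised viability falls below 80 percent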
Meaning of the calls: active = viability under 80%; inactive = viability 80% or more
In all, the deposit lists about 2,100 reagents; this is a part drawn at random. 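Calls flag viability under 80% in either arm, not effects specific to rucaparib; the reference for percent is not stated.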 Not given: the 100% reference.

| Gene | rucaparib or vehicle | cell line | technical replicate | viability, normalised (%) | Outcome |
| --- | --- | --- | --- | --- | --- |
| ATP5F1D | Rucaparib | OCI-C5x (clear cell) | 1 | 67.5 | active |
| ATP5F1D | Rucaparib | OCI-C5x (clear cell) | 2 | 67.2 | active |
| ATP5F1D | Rucaparib | OCI-C5x (clear cell) | 3 | 73.6 | active |
| ATP5F1D | Rucaparib | OCI-P5x (serous) | 1 | 80.9 | inactive |
| ATP5F1D | Rucaparib | OCI-P5x (serous) | 2 | 74.7 | active |
| ATP5F1D | Rucaparib | OCI-P5x (serous) | 3 | 71.3 | active |
| ATP5F1D | Vehicle | OCI-C5x (clear cell) | 1 | 77.5 | active |
| ATP5F1D | Vehicle | OCI-C5x (clear cell) | 2 | 82.7 | inactive |
| ATP5F1D | Vehicle | OCI-C5x (clear cell) | 3 | 74.6 | active |
| ATP5F1D | Vehicle | OCI-P5x (serous) | 1 | 75.9 | active |
| ATP5F1D | Vehicle | OCI-P5x (serous) | 2 | 78.9 | active |
| ATP5F1D | Vehicle | OCI-P5x (serous) | 3 | 78.3 | active |

Already shown: an excerpt of the list.
| Gene | rucaparib or vehicle | cell line | technical replicate | viability, normalised (%) | Outcome |
| --- | --- | --- | --- | --- | --- |
| ATP5F1D | Rucaparib | OCI-P5x (serous) | 3 | 71.3 | active |
| ATP5F1D | Vehicle | OCI-C5x (clear cell) | 1 | 77.5 | active |
| ATP5F1D | Vehicle | OCI-C5x (clear cell) | 2 | 82.7 | inactive |

Next results follow:
| Gene | rucaparib or vehicle | cell line | technical replicate | viability, normalised (%) | Outcome |
| --- | --- | --- | --- | --- | --- |
| DHX32 | Rucaparib | OCI-C5x (clear cell) | 1 | 45.3 | active |
| DHX32 | Rucaparib | OCI-C5x (clear cell) | 2 | 47.6 | active |
| DHX32 | Rucaparib | OCI-C5x (clear cell) | 3 | 35.9 | active |
| DHX32 | Rucaparib | OCI-P5x (serous) | 1 | 84.7 | inactive |
| DHX32 | Rucaparib | OCI-P5x (serous) | 2 | 82 | inactive |
| DHX32 | Rucaparib | OCI-P5x (serous) | 3 | 64.9 | active |
| DHX32 | Vehicle | OCI-C5x (clear cell) | 1 | 29.6 | active |
| DHX32 | Vehicle | OCI-C5x (clear cell) | 2 | 43.4 | active |
| DHX32 | Vehicle | OCI-C5x (clear cell) | 3 | 38.3 | active |
| DHX32 | Vehicle | OCI-P5x (serous) | 1 | 75.5 | active |
| DHX32 | Vehicle | OCI-P5x (serous) | 2 | 83.8 | inactive |
| DHX32 | Vehicle | OCI-P5x (serous) | 3 | 80.6 | inactive |
